These are yes or no findings as the source states them, for the method shown. In cells and extracts the contact can be indirect. Some entries that bind do so weakly or less than the wild type. For some assays here: Where a sequence is shown, tags or fusion partners need not be part of it. Each block holds one binder with its values, some of them ahead of it.
Assays:
[1] = target: T1, SLC25A6 (UniProt P12236); assay: co-IP; HEK293T lysed in IP lysis buffer with PMSF, precleared with protein A/G plus agarose beads and IgG, primary antibodies overnight, beads overnight at 4 °C, Western blot
T1 sequence: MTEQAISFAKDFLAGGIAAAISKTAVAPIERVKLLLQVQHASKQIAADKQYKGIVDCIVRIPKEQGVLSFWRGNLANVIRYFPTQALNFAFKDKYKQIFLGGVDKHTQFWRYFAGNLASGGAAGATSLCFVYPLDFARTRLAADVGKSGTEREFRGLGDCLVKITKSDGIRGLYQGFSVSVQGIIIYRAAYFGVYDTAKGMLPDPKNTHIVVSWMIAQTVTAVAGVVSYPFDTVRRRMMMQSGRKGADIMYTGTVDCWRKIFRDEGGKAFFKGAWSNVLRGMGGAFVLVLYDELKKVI

Sequences of proteins named here, by UniProt entry; tags and fusion partners are left off. Residues count along the entry.
UniProt O43895, residues 22-649: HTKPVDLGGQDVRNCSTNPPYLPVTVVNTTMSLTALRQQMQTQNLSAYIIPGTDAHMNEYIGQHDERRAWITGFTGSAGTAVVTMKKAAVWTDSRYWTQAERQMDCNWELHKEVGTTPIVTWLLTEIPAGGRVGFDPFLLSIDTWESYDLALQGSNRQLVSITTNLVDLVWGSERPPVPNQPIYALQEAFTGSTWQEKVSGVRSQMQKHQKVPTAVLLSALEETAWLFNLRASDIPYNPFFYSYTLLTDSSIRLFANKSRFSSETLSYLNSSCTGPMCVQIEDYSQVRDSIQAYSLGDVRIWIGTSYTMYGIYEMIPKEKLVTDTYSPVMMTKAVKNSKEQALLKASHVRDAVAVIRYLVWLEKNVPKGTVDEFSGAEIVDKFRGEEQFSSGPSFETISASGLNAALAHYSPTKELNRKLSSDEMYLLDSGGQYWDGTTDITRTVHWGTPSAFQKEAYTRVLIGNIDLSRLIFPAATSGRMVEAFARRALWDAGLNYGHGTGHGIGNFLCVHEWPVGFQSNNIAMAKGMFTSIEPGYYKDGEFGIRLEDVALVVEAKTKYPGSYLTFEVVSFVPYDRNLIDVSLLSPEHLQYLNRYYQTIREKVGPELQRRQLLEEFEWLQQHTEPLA

[2] = target: HA-tagged X-prolyl aminopeptidase 2 (XPNPEP2) (UniProt O43895); assay: as above

binding [1]: binds
B1: Siah E3 ubiquitin protein ligase 1 (SIAH1) (protein, UniProt Q8IUQ4 1-282)
chain: MSRQTATALPTGTSKCPPSQRVPALTGTTASNNDLASLFECPVCFDYVLPPILQCQSGHLVCSNCRPKLTCCPTCRGPLGSIRNLAMEKVANSVLFPCKYASSGCEITLPHTEKADHEELCEFRPYSCPCPGASCKWQGSLDAVMPHLMHQHKSITTLQGEDIVFLATDINLPGAVDWVMMQSCFGFHFMLVLEKQEKYDGHQQFFAIVQLIGTRKQAENFAYRLELNGHRRRLTWEATPRSIHEGIATAIMNSDCLVFDTSIAQLFAENGNLGINVTISMC

binding [2]: binds
B2: SLC25A6-FLAG (protein, UniProt P12236 1-298)
chain: T1 sequence

From publication PMC12819664
